Laboratory results taken from publication PMC4792963.
No constants are given. Whether binding was seen depends on the method and setting. Binding seen in cells or lysates may run through a third protein. Some binding calls cover weakened binding; strength is not graded here.

Legend:
[1] = biological target: COMMD1-GST (UniProt Q8N668); experiment: pull-down; HEK293T cells co-transfected with both partners; GST-tagged protein held on Glutathione Sepharose 4B; cells mainly lysed in NP-40 buffer (0.4 M NaCl, 0.1% NP-40, 10 mM Tris-HCl pH 8.0, 1 mM EDTA); immunoblot
[2] = biological target: Full-length Flag-tagged LDLR receptor (UniProt P01130); experiment: co-IP; HEK293T transfected with Flag-LDLR vector; immunoprecipitation with rabbit anti-Flag antibody; endogenous COMMD1 detected by immunoblot

Row | binding [1] | binding [2] | Substance
1 | binds | – | Full-length Flag-tagged LDLR receptor (from UniProt P01130 22-860)
2 | – | binds | endogenous COMMD1 (from UniProt Q8N668 1-190)
